The direction of at least one scale is not stated here. Protein sequences can lack the tags named with them.

This data set deals with T1, Vhr2 (Saccharomyces cerevisiae) (UniProt P40041).
T1 sequence (looked up): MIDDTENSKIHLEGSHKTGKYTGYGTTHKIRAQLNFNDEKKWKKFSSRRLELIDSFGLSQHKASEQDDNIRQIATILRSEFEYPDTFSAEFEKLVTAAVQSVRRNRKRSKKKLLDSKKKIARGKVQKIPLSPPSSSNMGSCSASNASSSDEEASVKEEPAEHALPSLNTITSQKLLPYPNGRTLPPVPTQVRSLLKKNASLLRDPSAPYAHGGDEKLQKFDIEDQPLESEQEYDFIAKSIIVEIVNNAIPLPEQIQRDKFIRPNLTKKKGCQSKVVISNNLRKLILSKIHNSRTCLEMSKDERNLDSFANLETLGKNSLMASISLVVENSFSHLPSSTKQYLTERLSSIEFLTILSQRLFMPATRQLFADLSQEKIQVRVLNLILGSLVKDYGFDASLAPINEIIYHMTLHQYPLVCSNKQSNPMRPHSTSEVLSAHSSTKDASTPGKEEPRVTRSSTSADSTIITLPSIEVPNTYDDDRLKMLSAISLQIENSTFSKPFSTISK
Nature of the data set: binding assay. As to conditions: 200 nM, protein translated in vitro, protein details: N-terminal GST (pDEST15), kept, only the motif is given.
On to “ATAGACCG (double strand) [8-mer ATAGACCG]”, for which the binding signal (PBM E-score (-0.5 to 0.5)) is -0.067.
In turn, “CCGGAAAC (double strand) [8-mer CCGGAAAC]” came in with a binding signal (PBM E-score (-0.5 to 0.5)) of -0.084.
The figure for “CCGGACGA (double strand) [8-mer CCGGACGA]” is 0.
The figure for “CCGTGTAA (double strand) [8-mer CCGTGTAA]” is -0.034.
Next, “GATACTTA (double strand) [8-mer GATACTTA]”: -0.017.
“GATAGTTA (double strand) [8-mer GATAGTTA]” displayed a binding signal (PBM E-score (-0.5 to 0.5)) of -0.051.

The values above are taken from article PMC3334620.
